# According to the supplement of paper PMC4604168 (melanoma cell lines):
# The list shows a part of the results. Single values are uncertain, as repeats are few or missing.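 Imaging used 1,536-well plates; nuclei positive for cleaved PARP by antibody were divided by total DNA-stained nuclei to yield the apoptosis fraction. Doses for screening kept most cells viable, and cell lines differ markedly in resting and induced cleaved-PARP levels.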
# Tests used:
# Test in all cases: cleaved PARP positive nuclei fraction relative to DMSO control; melanoma cells; higher = more apoptosis
# Details in all cases: library dose: low library concentration; 72 h
# [1] = tested on: A101D
# [2] = tested on: A2058
# [3] = tested on: C32
# [4] = tested on: CBRC008 (line from a melanoma biopsy)
# [5] = tested on: CBRC014 (line from a melanoma biopsy)
# [6] = tested on: CBRC016 (line from a melanoma biopsy)
# [7] = tested on: CBRC017 (line from a melanoma biopsy)
# [8] = tested on: COLO792
# [9] = tested on: COLO800
# [10] = tested on: COLO829
# [11] = tested on: G361
# [12] = tested on: IPC-298
# [13] = tested on: IST-MEL1
# [14] = tested on: LOXIMVI
# [15] = tested on: A375
# [16] = tested on: CBRC034 (line from a melanoma biopsy)
# [17] = tested on: MEL-HO
Structure (SMILES),cleaved PARP positive nuclei fraction [1],cleaved PARP positive nuclei fraction [2],cleaved PARP positive nuclei fraction [3],cleaved PARP positive nuclei fraction [4],cleaved PARP positive nuclei fraction [5],cleaved PARP positive nuclei fraction [6],cleaved PARP positive nuclei fraction [7],cleaved PARP positive nuclei fraction [8],cleaved PARP positive nuclei fraction [9],cleaved PARP positive nuclei fraction [10],cleaved PARP positive nuclei fraction [11],cleaved PARP positive nuclei fraction [12],cleaved PARP positive nuclei fraction [13],cleaved PARP positive nuclei fraction [14],cleaved PARP positive nuclei fraction [15],cleaved PARP positive nuclei fraction [16],cleaved PARP positive nuclei fraction [17]
"NC(=O)c1ccc(N(C(N)=O)c2c(F)cccc2F)nc1-c1ccc(F)cc1F + CCc1ccc(CCOc2ccc(CC3SC(=O)NC3=O)cc2)nc1 [pioglitazone] (first compound 0.4 µM, partner dose 2 µM)",44.8%,77.5%,35.7%,27.9%,91%,61.4%,86.6%,131%,51%,126%,46.7%,44.4%,124%,53.5%,–,–,–
"C[C@@H](N)c1ccc(C(=O)Nc2ccnc3[nH]ccc23)cc1 + CCN(CC)CCNC(=O)c1c(C)[nH]c(/C=C2\C(=O)Nc3ccc(F)cc32)c1C [sunitinib] (first compound 0.4 µM, partner dose 0.4 µM)",175%,299%,80.2%,137%,96.7%,140%,123%,119%,185%,72.4%,226%,167%,94.3%,142%,116%,155%,99.7%
"NC(=O)c1ccc(N(C(N)=O)c2c(F)cccc2F)nc1-c1ccc(F)cc1F + Oc1nc(-c2ccc(C(F)(F)F)cc2)nc2c1CSCC2 [XAV939] (first compound 0.4 µM, partner dose 2 µM)",29.6%,98.9%,147%,98.8%,101%,32.5%,147%,235%,91.5%,83.7%,73.3%,45.1%,327%,56.2%,–,–,–
"CC1(C)CCC(c2ccc(Cl)cc2)=C(CN2CCN(c3ccc(C(=O)NS(=O)(=O)c4ccc(N[C@H](CCN5CCOCC5)CSc5ccccc5)c(S(=O)(=O)C(F)(F)F)c4)cc3)CC2)C1 + Nc1cccc2c1CN(C1CCC(=O)NC1=O)C2=O [lenalidomide] (first compound 0.4 µM, partner dose 1 µM)",85%,45.9%,115%,646%,330%,360%,375%,227%,191%,218%,177%,601%,83.8%,284%,188%,166%,210%
"CCCCCCCCc1ccc(CCC(N)(CO)CO)cc1 [fingolimod] + CN(c1ncccc1CNc1nc(Nc2ccc3c(c2)CC(=O)N3)ncc1C(F)(F)F)S(C)(=O)=O [PF562271] (first compound 2 µM, partner dose 0.08 µM)",94.6%,165%,176%,23.7%,134%,17.6%,113%,126%,152%,90.4%,90%,171%,59.8%,208%,802%,30.3%,208%
"C[C@@H](N)c1ccc(C(=O)Nc2ccnc3[nH]ccc23)cc1 + C[C@@H](Oc1cc(-c2cnn(C3CCNCC3)c2)cnc1N)c1c(Cl)ccc(F)c1Cl [Crizotinib] (first compound 0.4 µM, partner dose 0.2 µM)",44.7%,236%,90.5%,70.3%,115%,29.9%,120%,190%,119%,98%,98.4%,169%,86.8%,148%,112%,307%,53%
"CC1(C)CCC(c2ccc(Cl)cc2)=C(CN2CCN(c3ccc(C(=O)NS(=O)(=O)c4ccc(N[C@H](CCN5CCOCC5)CSc5ccccc5)c(S(=O)(=O)C(F)(F)F)c4)cc3)CC2)C1 + C=CCNC1=C2C[C@@H](C)C[C@H](OC)[C@H](O)[C@@H](C)/C=C(\C)[C@H](OC(N)=O)[C@@H](OC)/C=C\C=C(/C)C(=O)NC(=CC1=O)C2=O [Tanespimycin] (first compound 0.4 µM, partner dose 0.002 µM)",173%,51.3%,263%,840%,677%,705%,411%,360%,181%,124%,143%,417%,59%,241%,291%,46%,82.6%
"Cn1sc(=O)n(Cc2ccccc2)c1=O + C=C(c1ccc(C(=O)O)cc1)c1cc2c(cc1C)C(C)(C)CCC2(C)C [Bexarotene] (first compound 0.4 µM, partner dose 2 µM)",20.3%,176%,84.4%,177%,104%,150%,140%,68.6%,110%,94.1%,179%,189%,63.7%,127%,51.8%,46.2%,97.6%
"CCN(CC)CCNC(=O)c1c(C)[nH]c(/C=C2\C(=O)Nc3ccc(F)cc32)c1C [sunitinib] + O=C(O)C(=O)Nc1sc2c(c1C(=O)O)CCNC2 [TCS401] (first compound 0.4 µM, partner dose 1.66667 µM)",33.4%,71.1%,85%,198%,83.3%,127%,128%,99.6%,183%,56.3%,127%,48.1%,61.3%,171%,–,–,–
"CC1(C)CCC(c2ccc(Cl)cc2)=C(CN2CCN(c3ccc(C(=O)NS(=O)(=O)c4ccc(N[C@H](CCN5CCOCC5)CSc5ccccc5)c(S(=O)(=O)C(F)(F)F)c4)cc3)CC2)C1 + COc1ccc2c(c1)CCC1C2CCC2(C)C(NCCCCCCN3C(=O)C=CC3=O)CCC12 [U73122] (first compound 0.4 µM, partner dose 0.4 µM)",15.5%,209%,166%,479%,522%,497%,567%,451%,174%,115%,246%,149%,57.8%,153%,–,–,–
"C[C@]1(O)C[C@@H](c2nc(-c3ccc4ccc(-c5ccccc5)nc4c3)c3c(N)nccn32)C1 + COc1ccc(-c2ccc3c(N4CCOCC4)nc(N4C[C@@H](C)O[C@@H](C)C4)nc3n2)cc1CO [KU0063794] (first compound 0.4 µM, partner dose 0.02 µM)",20%,82.2%,82.3%,117%,95%,75.5%,158%,118%,174%,94.1%,100%,67.6%,78.4%,247%,–,–,–
"CC(=O)O[C@@]12CO[C@@H]1C[C@H](O)[C@@]1(C)C(=O)[C@H](O)C3=C(C)[C@@H](OC(=O)[C@H](O)[C@@H](NC(=O)OC(C)(C)C)c4ccccc4)C[C@@](O)([C@@H](OC(=O)c4ccccc4)[C@H]21)C3(C)C [Docetaxel] + Cc1cc([N+](=O)[O-])ccc1NS(=O)(=O)c1cc(Cl)ccc1Cl [FH535] (first compound 0.0001 µM, partner dose 1 µM)",109%,2980%,281%,659%,188%,1800%,227%,258%,316%,143%,307%,267%,89.3%,167%,–,–,–
"Cn1sc(=O)n(Cc2ccccc2)c1=O + O=C(O)[C@@H]1[O][Sb](=[O])([O][Sb]2(=[O])[O][C@H]([C@H](O)CO)[C@H](O)[C@H](C(=O)O)[O]2)[O][C@H]([C@H](O)CO)[C@@H]1O [stibogluconate] (first compound 0.4 µM, partner dose 2 µM)",91.3%,132%,44.3%,155%,76%,22.9%,136%,69.3%,131%,93.1%,118%,90.1%,182%,704%,167%,47%,72.9%
"NC(=O)c1ccc(N(C(N)=O)c2c(F)cccc2F)nc1-c1ccc(F)cc1F + CC(C)CCN1c2nc(Nc3cc(F)c(O)c(F)c3)ncc2N(C)C(=O)C1C [BID1870] (first compound 0.4 µM, partner dose 0.2 µM)",33.8%,66.5%,43.6%,99.7%,93.7%,75.7%,115%,51.8%,36.5%,156%,94.1%,48.1%,137%,492%,–,–,–
"NC1(c2ccc(-c3nc4ccn5c(=O)[nH]nc5c4cc3-c3ccccc3)cc2)CCC1 + Nc1nc(F)nc2c1ncn2[C@@H]1O[C@H](CO)[C@@H](O)[C@@H]1O [fludarabine] (first compound 0.4 µM, partner dose 0.2 µM)",176%,350%,76.5%,83.8%,97.5%,42.4%,103%,147%,73.8%,197%,141%,190%,98.7%,172%,4390%,172%,274%

# For reference, some entries already given.
Structure (SMILES),cleaved PARP positive nuclei fraction [1],cleaved PARP positive nuclei fraction [2],cleaved PARP positive nuclei fraction [3],cleaved PARP positive nuclei fraction [4],cleaved PARP positive nuclei fraction [5],cleaved PARP positive nuclei fraction [6],cleaved PARP positive nuclei fraction [7],cleaved PARP positive nuclei fraction [8],cleaved PARP positive nuclei fraction [9],cleaved PARP positive nuclei fraction [10],cleaved PARP positive nuclei fraction [11],cleaved PARP positive nuclei fraction [12],cleaved PARP positive nuclei fraction [13],cleaved PARP positive nuclei fraction [14],cleaved PARP positive nuclei fraction [15],cleaved PARP positive nuclei fraction [16],cleaved PARP positive nuclei fraction [17]
"NC(=O)c1ccc(N(C(N)=O)c2c(F)cccc2F)nc1-c1ccc(F)cc1F + Oc1nc(-c2ccc(C(F)(F)F)cc2)nc2c1CSCC2 [XAV939] (first compound 0.4 µM, partner dose 2 µM)",29.6%,98.9%,147%,98.8%,101%,32.5%,147%,235%,91.5%,83.7%,73.3%,45.1%,327%,56.2%,–,–,–
"CC1(C)CCC(c2ccc(Cl)cc2)=C(CN2CCN(c3ccc(C(=O)NS(=O)(=O)c4ccc(N[C@H](CCN5CCOCC5)CSc5ccccc5)c(S(=O)(=O)C(F)(F)F)c4)cc3)CC2)C1 + Nc1cccc2c1CN(C1CCC(=O)NC1=O)C2=O [lenalidomide] (first compound 0.4 µM, partner dose 1 µM)",85%,45.9%,115%,646%,330%,360%,375%,227%,191%,218%,177%,601%,83.8%,284%,188%,166%,210%
